Results published in patent US20100215775A1, “USE OF C10-C14-ALKANEDIOLS IN THE PREPARATION OF A COMPOSITION FOR THE PROPHYLAXIS AND/OR TREATMENT OF MALASSEZIA-INDUCED DANDRUFF FORMATION” (SYMRISE GmbH & Co. KG, priority 2006, published 2010).
The name of at least one read-out is uncertain.

These compounds were tested on Malassezia furfur strain DSM6171 (assay: MIC value measurement by agar dilution method against Malassezia furfur). Details: Mueller-Hinton agar with 3% Tween 80, 72 hours at 30° C., lowest concentration with no macroscopic growth.
Type: cell-based, Malassezia furfur (synonym: Pityrosporum ovale)
Protocol: The antimicrobial action of the alkane-1,2-diols against Malassezia furfur was determined by means of the agar dilution method in accordance with DIN 58 940/ICS and DIN 58 944/ICS. Malassezia furfur strain DSM6171 was used as the test organism. Petri dishes having a diameter of 9 cm and containing 8.7 ml of freshly prepared Mueller-Hinton agar (Merck, art. 1.05437) kept liquid at 50° C. and containing 3% Tween 80 (Merck, art. 8.2217) were used. In order to prepare the test concentrations, ethanolic stock solutions of the alkane-1,2-diol samples were diluted with 96% ethanol until the following final test concentrations of the alkane-1,2-diols in the Mueller-Hinton agar were present: 25,000 ppm, 12,500 ppm, 6300 ppm, 3600 ppm, 1800 ppm, 1100 ppm, 900 ppm, 450 ppm, 225 ppm, 112 ppm, 56 ppm, 28 ppm, 14 ppm, 7 ppm, 4 ppm. 2 agar plates were cast per test concentration and nutrient medium. After solidification and drying (about 1 hour at 37° C.), the test plates were inoculated punctually with in each case 1 μl of the Malassezia furfur (DSM 6171-2.8×10^7 KBE/ml) test organism suspensions. The inoculated plates were subsequently incubated for 72 hours at 30° C. and then evaluated. The lowest active ingredient concentration at which, macroscopically, no growth is present was regarded as the MIC (minimum inhibitory concentration). The MIC values of the alkane-1,2-diols listed in Table 1 were determined in accordance with the general test conditions.

Compound	MIC value
CCCCCCCCC(O)CO (stereo not drawn) [1,2-Decanediol]	28 ppm
CCCCCCCCCCC(O)CO (stereo not drawn) [1,2-Dodecanediol]	14 ppm
CCCCCCCCCCCCC(O)CO (stereo not drawn) [1,2-Tetradecanediol]	7 ppm
